Laboratory results published in PubChem BioAssay AID540256 (National Center for Advancing Translational Sciences (NCATS), 2011).
The campaign covered roughly 300,000 compounds. About 3,700 (1.2%) were called active. This list was built around the results that the source calls inconclusive (neither active nor inactive); the mix of calls is not that of the screen. Calls follow the shape of the full dose curve; tested in HEK293 cells. Potencies of inconclusive entries are doubtful fits and often do not repeat.

assay: qHTS for Inhibitors of binding or entry into cells for Lassa Virus; details: Lassa virus pseudotype entry inhibition, cell reporter; series mostly up to 37.9 µM; also: nearly all actives have a fitted effect of over 50% in size
Potency is read from the fitted curve at half-maximal effect.

Row | Structure (SMILES) | Potency
1 | Cc1cccc(CCn2c(=O)c3ccccc3n(Cc3ccccc3C)c2=O)c1 | inconclusive: 15.8 µM [activator, partial curve, poor fit]
2 | O=C(CCNC(=O)c1ccc(Br)cc1)NNC(=O)c1ccccc1 | inactive
3 | Cc1ccccc1NC(=S)N/N=C/C(C)c1ccccc1 (stereo unspecified) | inconclusive: 35.5 µM [inhibitor, partial curve, poor fit]
4 | O=C(CSC(=S)N1CCCCC1)Nc1ncc2c(n1)CC(c1ccco1)CC2=O (stereo unspecified) | inconclusive: 10 µM [inhibitor, partial curve, poor fit]
5 | O=C(Nc1cccc(-c2ccc(N3CCCCC3)nn2)c1)c1ccc(Br)o1 | inconclusive: 35.5 µM [inhibitor, single point]
6 | Cc1ccccc1-c1nsc(SCC(=O)c2ccc(Cl)cc2)n1 | inconclusive: 3.16 µM [inhibitor, single point]
7 | COc1cccc(C(=O)/C=C/Nc2cccc(O)c2)c1 | active: 2.91 µM
8 | O=C(CNS(=O)(=O)c1ccc(Br)s1)N1CCN(c2ccc(F)cc2)CC1 | inconclusive: 1.26 µM [inhibitor, single point]
9 | CCOc1ccc(C(=O)Nc2cc(-c3nc4ccccc4[nH]3)ccc2C)cc1[N+](=O)[O-] | inconclusive: 35.5 µM [inhibitor, single point]
10 | Cc1sc2ncnc(N/N=C/c3ccc(O)cc3)c2c1C | inconclusive: 5.62 µM [inhibitor, partial curve, poor fit]
11 | Cc1cccc(NC(=O)CCOc2ccccc2)c1 | inconclusive: 5.62 µM [activator, full curve]
12 | COc1ccc(Cl)cc1NC(=O)C(=O)NCc1ccc(Cl)cc1 | inactive
13 | COc1ccc(C(=O)Nc2sc3c(c2C#N)CCN(C(C)=O)C3)cc1 | inconclusive: 6.31 µM [inhibitor, single point]
14 | CC(=C/c1ccccc1)/C=N/NC(=O)c1ccccn1 | inconclusive: 11.2 µM [inhibitor, single point]
15 | N/C(=N\OCc1ccc([N+](=O)[O-])cc1)c1ccccn1 | inconclusive: 1.58 µM [inhibitor, full curve, poor fit]
16 | COC(=O)C1=C(C)NC(C)=C(C(=O)OC(C)(C)CN(C)CCC(c2ccccc2)c2ccccc2)C1c1cccc([N+](=O)[O-])c1 (stereo unspecified) | active: 8.2 µM
17 | CCn1c(NCc2ccccc2NS(=O)(=O)c2ccc(C)cc2)nc2ccccc21 | inconclusive: 20 µM [inhibitor, single point]
18 | O=C1CC(c2ccccc2)Cc2[nH]c(=O)c(-c3nc(-c4ccc(Cl)c(Cl)c4)cs3)cc21 (stereo unspecified) | inactive
19 | COC(=O)c1cc2c(=O)c3ccccc3oc2nc1/C=C/N(C)C | inactive
20 | COc1ccc(C(=O)CSc2nnc(CN3CCCCC3)n2-c2ccc(Cl)cc2)cc1OC | inconclusive: 29.1 µM [inhibitor, single point]
21 | CC(C)c1ccc(-c2nn(-c3ccccc3)cc2C(=O)NCC2CCCO2)cc1 (stereo unspecified) | inconclusive: 8.91 µM [inhibitor, partial curve]
22 | COc1ccccc1NC(=O)C(C)OC(=O)C1CC(=O)N(c2ccc3c(c2)OCCO3)C1 (stereo unspecified) | inactive

3 successive entries out of the list so far:
Row | Structure (SMILES) | Potency
14 | CC(=C/c1ccccc1)/C=N/NC(=O)c1ccccn1 | inconclusive: 11.2 µM [inhibitor, single point]
15 | N/C(=N\OCc1ccc([N+](=O)[O-])cc1)c1ccccn1 | inconclusive: 1.58 µM [inhibitor, full curve, poor fit]
16 | COC(=O)C1=C(C)NC(C)=C(C(=O)OC(C)(C)CN(C)CCC(c2ccccc2)c2ccccc2)C1c1cccc([N+](=O)[O-])c1 (stereo unspecified) | active: 8.2 µM

Next records follow:

Row | Structure (SMILES) | Potency
23 | O=C(Nc1ccccc1SCC1CSc2nc3ccccc3c(=O)n21)c1ccccc1 (stereo unspecified) | inconclusive: 35.5 µM [inhibitor, single point]
24 | O=C(NCCc1c[nH]c2ccccc12)C(=O)NCC1OCCCN1S(=O)(=O)c1ccccc1 (stereo unspecified) | inconclusive: 29.1 µM [inhibitor, single point]
25 | COc1ccccc1N(CC(=O)Nc1ccc2c(c1)OCCO2)S(=O)(=O)c1ccc(C)cc1 | inconclusive: 25.1 µM [inhibitor, single point]
26 | CC(C)Cc1nn2cc(-c3cccc(Br)c3)nc2s1 | inconclusive: 6.31 µM [activator, partial curve, poor fit]
27 | Cc1ccc(CNC(=O)C2CCC(=O)N(CCCN3CCOCC3)C2)cc1 (stereo unspecified) | inconclusive: 1.26 µM [activator, single point]
28 | O=C(NCCCN1CCOCC1)C(=O)c1c[nH]c2ccccc12 | inactive
29 | CCOC(=O)C1CCN(c2cc3c(cc2NC(=O)c2ccccc2Cl)n(C)c(=O)n3C)CC1 | active: 2.51 µM
30 | CC(C)n1c(Nc2ccccc2)nc2ccccc21 | inconclusive: 2.51 µM [inhibitor, partial curve, poor fit]
31 | CCN(CC)S(=O)(=O)c1cccc(NC(=O)Nc2cccc(C(F)(F)F)c2)c1 | active: 16.4 µM
32 | CN1CCN(CCCC(=O)c2ccc(C3CCCC3)cc2)CC1 | inconclusive: 0.562 µM [activator, full curve, poor fit]
33 | Cc1ccc2nc(SCc3nc4cc(Cl)ccc4c(=O)[nH]3)[nH]c2c1 | inactive
34 | CCOc1ccc(-c2nnc(SCC(=O)Nc3ccc4c(c3)c3ccccc3n4CC)n2N)cc1 | inconclusive: 11.6 µM [inhibitor, partial curve]
35 | COc1ccc(OC)c(NC(=O)CSc2nnc(Cc3cccn3C)n2CCc2ccccc2)c1 | inactive
36 | COc1ccc(N2COC3c4cccc5cccc(c45)C32)cc1 (stereo unspecified) | inactive
37 | CCN(CC)CCCNC1=C(Cl)C(=O)c2ccccc2C1=O | inconclusive: 35.5 µM [inhibitor, single point]
38 | COC(=O)c1c(C)n(-c2ccc(OC)cc2)c2ccc(O)cc12 | inconclusive: 17.8 µM [inhibitor, single point]
39 | CCCC(=O)NC(=S)Nc1ccc(C(C)=O)cc1 | inconclusive: 10 µM [activator, partial curve]
40 | CCc1ccccc1NC(=O)Cn1nnc(C(=O)NCc2ccco2)c1N | inconclusive: 0.562 µM [inhibitor, full curve, poor fit]
41 | COc1cccc(NC(=S)NC(=O)/C=C/c2ccco2)c1 | inconclusive: 25.1 µM [inhibitor, single point]
42 | COc1ccc(NC(=O)CCCN2C(=O)/C(=C\c3ccco3)SC2=S)cc1 | inconclusive: 35.5 µM [inhibitor, partial curve, poor fit]
43 | CCOC(=O)c1nnc2c(-c3ccc(Cl)cc3)c(C)nn2c1N | inconclusive: 14.1 µM [activator, partial curve, poor fit]
44 | O=C(CCS(=O)(=O)c1ccccc1)N(Cc1cccnc1)c1nc2c(F)cccc2s1 | inconclusive: 12.6 µM [inhibitor, partial curve, poor fit]

Row | Structure (SMILES) | Potency
45 | O=C(Nc1cccnc1Cl)c1cccnc1Cl | inconclusive: 11.2 µM [activator, partial curve, poor fit]
46 | COc1ccc(C(=O)c2c(C(F)(F)F)oc3c2C(=O)c2ccccc2C3=O)cc1 | inconclusive: 10 µM [inhibitor, partial curve, poor fit]
47 | Fc1ccc2[nH]c3c(N4CCc5ccccc5C4)ncnc3c2c1 | inconclusive: 5.62 µM [inhibitor, partial curve]
48 | Cc1sc2nc(COC(=O)c3cccc(S(=O)(=O)N(C)c4ccccc4)c3)[nH]c(=O)c2c1C | inconclusive: 29.1 µM [inhibitor, single point]
49 | O=C(NCc1cccnc1)C12CC3CC(CC(Cl)(C3)C1)C2 | inactive
50 | Cc1cc(C)cc(NC(=S)NCc2ccc3[nH]c4c(c3c2)CCCC4)c1 | active: 3.66 µM
51 | CCOc1ccccc1OCCCC(=O)N(CC)CC(=O)Nc1ccc(NC(C)=O)cc1 | inactive
52 | O=c1[nH]c(SCc2ccccc2)nc2ccsc12 | inactive
53 | O=C(Nc1nc2c(Cl)cccc2s1)c1ccc([N+](=O)[O-])o1 | inactive
54 | c1cc2c(cc1-c1csc(NNC3=NCCCCC3)n1)OCCO2 | inconclusive: 3.55 µM [activator, partial curve, poor fit]
55 | N#CC1(NC(=O)COC(=O)C23CC4CC(CC(O)(C4)C2)C3)CCCCC1 | inconclusive: 0.501 µM [inhibitor, partial curve, poor fit]
56 | COC(=O)c1cccc(OCC(O)Cn2cnc3cc(C)c(C)cc32)c1 (stereo unspecified) | inconclusive: 23.1 µM [activator, single point]
57 | O=C(NCCc1ccccc1)c1ccc(CSc2nc3cccnc3n2Cc2ccccc2)cc1 | inactive
58 | CCOC(=O)C1CCCN(C(=O)c2cn(CC)c(=O)c3cc(OC)c(OC)cc23)C1 (stereo unspecified) | inactive
59 | O=c1oc2ccccc2c(NC2CCCCC2)c1NS(=O)(=O)c1ccc(F)c(Cl)c1 | inconclusive: 25.1 µM [activator, single point]
60 | CCc1nc(N2CCN(Cc3ccc4c(c3)OCO4)CC2)c2oc3ccccc3c2n1 | inconclusive: 32.6 µM [inhibitor, single point]
61 | Cc1ccc(S(=O)(=O)N2CCN(CC(=O)Nc3ccc4c(c3)CCC4)CC2)cc1C | inconclusive: 15.8 µM [inhibitor, single point]
62 | CCOC(=O)C1=C(C)Nc2sc(C(=O)c3ccc(Br)cc3)c(N)c2C1c1ccc(C(=O)OC)cc1 (stereo unspecified) | inconclusive: 18.3 µM [inhibitor, single point]
63 | O=S(=O)(Nc1nc2ccccc2nc1Nc1cccc(S(=O)(=O)N2CCCCC2)c1)c1ccccc1 | inconclusive: 35.5 µM [inhibitor, single point]
64 | CC1CCN(C(=O)COC(=O)[C@H](C)NS(=O)(=O)/C=C/c2ccccc2)CC1 | inactive
65 | C=CCNC(=O)c1c(Cl)cnn1-c1ccc(C)cc1 | inconclusive: 8.91 µM [activator, partial curve, poor fit]
66 | Cc1nc(NC(=O)c2ccccc2)nc2cc3c(cc12)OCO3 | inconclusive: 0.461 µM [activator, full curve]
